In article PMC7275032 one finds binding data, which are given here for 1 molecule.

The target in this test is SPA-2 (polarisome protein) (N. crassa) (UniProt V5IQM7). The test is described as follows: co-IP; heterokaryons with mGFP- and HA-tagged versions of one protein in the deletion background of the other (SPA-2 in the absence of JNS-1, JNS-1 in the absence of SPA-2); precipitation with anti-GFP antibodies, HA-tagged version detected.

These are yes or no findings as the source states them, for the method shown. Binding seen in cells or lysates may run through a third protein. Some binding calls cover weakened binding; strength is not graded here.

B1: SPA-2 (polarisome protein) (protein, UniProt V5IQM7 1-888)
chain: MNVRNAPLSPISQGAPSDWNHPPNDNNLGQYNTPPDSANPAGAMNGGFSPMPQSPNGAPSPPPSVGRSSTGMYARSVKSQSQQGENQELVLSDHYISLKRYLSATSRDGNPKPPPNKARDKLQRLTEVQFLELSTDVYDELKRREQVARRGPNAPPETAPPDFLLPQDNFHPKRNQARQKLSSLGPPRFRDLATDVFCELERRYPNFANLEMPLNASPIAMRGPPSRSGTPNNGMGGFPPRGQSHRRPSEASSVRSARSGPPMPPMMNGGYGVPPSPGLPPNGDYGRPMPKQFQSNTIVPNKSTMVEEDDEGNLMSPGQGGDMYGNGRRSMGQAFEADRKLIQDYENQVRELQEKVDNMEMEMRKKDEELNNMQSGDGNKKDWDETRQSLETKLAEAQELNDSLQRELDRIREEHEDETRKLREGLEDGRQSGGKGDGDLARENEELRQSLQEQQQITDEVRREAQEFLREMRTLSQQSGAAWERQTELERTIESLEKEVKEWRSRYARTQTQLRSMRDSSEGVPLEQNAGKYVREKGFVEDSGLVKDLHVTKFQIAIDELLQRARNDNPERVIDSMKAVVVSVRRIAKDIDENPQNDSILQEKAKLKARVSSTANNLITASKNFASSAGISPVSLLDAAASHLVAAVIELLRAAKIRTTPAGELEEEDDGTVTPVGSASFFSPRNGQSQTSSVASAHEVLAQPPAFQGLGGGGGSRISVDSSAYSANSPRESYAESKPTAPDPRRVEDLKFYLQDKTSVMVETIQNLVQLIRSDANINQLSGEIAIITDVVSKVVAETDSCLGSSASSTVVDVVRRLSKCSDRLNEAGQHGIDLDAQGSSPTSREWRMWAQTLPPIAFELARDTKELVQQVDRLAAAGMNDGADDFA
B1: the binding result was “binds”.
